From patent publication US20150224182A1

Columns and labels:
[1] = molecular target: HLA-B*0702 (human); assay: HLA-B7 eluate MS; AML1; 2 means 1-5 copies/cell; conditions: remark: other sources report otherwise
[2] = molecular target: HLA-B*0702 (human); assay: HLA-B7 eluate MS; AML1; 2 means 1-5 copies/cell
[3] = molecular target: HLA-B*0702 (human); assay: HLA-B7 eluate MS; AML1; 3 means 6-25 copies/cell; conditions: remark: other sources report otherwise
[4] = molecular target: HLA-B*0702 (human); assay: HLA-B7 eluate MS; CLL2; 2 means 1-5 copies/cell; conditions: remark: other sources report otherwise
[5] = molecular target: HLA-B*0702 (human); assay: HLA-B7 eluate MS; HCL1; 2 means 1-5 copies/cell; conditions: remark: other sources report otherwise
[6] = molecular target: HLA-B*0702 (human); assay: HLA-B7 eluate MS; CLL4; 2 means 1-5 copies/cell; conditions: remark: other sources report otherwise
[7] = molecular target: HLA-B*0702 (human); assay: HLA-B7 eluate MS; JY; 4 means >25 copies/cell; conditions: remark: other sources report otherwise
[8] = molecular target: HLA-B*0702 (human); assay: HLA-B7 eluate MS; AML1; 1 means <1 copy/cell; conditions: remark: other sources report otherwise
[9] = molecular target: HLA-A*0201 (human); assay: HLA-A2 eluate MS; CLL1; 2 means 1-5 copies/cell; conditions: remark: other sources report otherwise
[10] = molecular target: HLA-A*0201 (human); assay: HLA-A2 eluate MS; JY; 2 means 1-5 copies/cell; conditions: remark: other sources report otherwise
[11] = molecular target: HLA-A*0201 (human); assay: HLA-A2 eluate MS; CLL4; 1 means <1 copy/cell; conditions: remark: other sources report otherwise
[12] = molecular target: HLA-A*0201 (human); assay: HLA-A2 eluate MS; CLL2; 2 means 1-5 copies/cell; conditions: remark: other sources report otherwise
[13] = molecular target: HLA-A*0201 (human); assay: HLA-A2 eluate MS; CLL3; 1 means <1 copy/cell; conditions: remark: other sources report otherwise
[14] = molecular target: HLA-A*0201 (human); assay: HLA-A2 eluate MS; CLL1; 1 means <1 copy/cell; conditions: remark: other sources report otherwise
[15] = molecular target: HLA-A*0201 (human); assay: HLA-A2 eluate MS; CLL2; 1 means <1 copy/cell; conditions: remark: other sources report otherwise
[16] = molecular target: HLA-A*0201 (human); assay: HLA-A2 eluate MS; MCL; 1 means <1 copy/cell; conditions: remark: other sources report otherwise
[17] = molecular target: HLA-A*0201 (human); assay: MS of HLA-A*0201 (BB7.2) eluate; cultured melanocytes; +++ means 50-500 copies/cell; conditions: remark: other sources report otherwise
[18] = molecular target: HLA-B*0702 (human); assay: HLA-B7 eluate MS; HCL1; 3 means 6-25 copies/cell; conditions: remark: other sources report otherwise
[19] = molecular target: HLA-B*0702 (human); assay: HLA-B7 eluate MS; CLL2; 3 means 6-25 copies/cell; conditions: remark: other sources report otherwise
[20] = molecular target: HLA-A*0201 (human); assay: HLA-A2 eluate MS; JY; 4 means >25 copies/cell; conditions: remark: other sources report otherwise
[21] = molecular target: HLA-A*0201 (human); assay: HLA-A2 eluate MS; B Cell; 2 means 1-5 copies/cell; conditions: remark: other sources report otherwise
[22] = molecular target: HLA-A*0201 (human); assay: HLA-A2 eluate MS; T Cell; 2 means 1-5 copies/cell; conditions: remark: other sources report otherwise
[23] = molecular target: HLA-A*0201 (human); assay: HLA-A2 eluate MS; AML1; 1 means <1 copy/cell; conditions: remark: other sources report otherwise
[24] = molecular target: HLA-A*0201 (human); assay: MHC binding affinity, method and allele not printed there; conditions: remark: other sources report otherwise
[25] = molecular target: HLA-B*0702 (human); assay: HLA-B7 eluate MS; AML1; 4 means >25 copies/cell; conditions: remark: other sources report otherwise
[26] = molecular target: HLA-B*0702 (human); assay: HLA-B7 eluate MS; ALL1; 3 means 6-25 copies/cell
[27] = molecular target: HLA-B*0702 (human); assay: HLA-B7 eluate MS; T Cell; 2 means 1-5 copies/cell
[28] = molecular target: HLA-B*0702 (human); assay: HLA-B7 eluate MS; HCL1; 1 means <1 copy/cell; conditions: remark: other sources report otherwise
[29] = molecular target: HLA-B*0702 (human); assay: HLA-B7 eluate MS; T Cell; 4 means >25 copies/cell; conditions: remark: other sources report otherwise
[30] = molecular target: HLA-B*0702 (human); assay: HLA-B7 eluate MS; ALL1; 4 means >25 copies/cell; conditions: remark: other sources report otherwise
[31] = molecular target: HLA-B*0702 (human); assay: HLA-B7 eluate MS; JY; 3 means 6-25 copies/cell; conditions: remark: other sources report otherwise
[32] = molecular target: HLA-B*0702 (human); assay: HLA-B7 eluate MS; B Cell; 3 means 6-25 copies/cell; conditions: remark: other sources report otherwise

Measured: binding

B1: MLL phosphopeptide RVRsPTRSP (peptide)
peptide: RVRSPTRSP
modifications: here or on the partner: phosphoserine at 4
binds: [1]

B2: ATXN2 phosphopeptide RPRsPRQNSI (peptide)
peptide: RPRSPRQNSI
modifications: phosphoserine at 4
binds: [2]

B3: MAP3K11 phosphopeptide TPRsPPLGLI (peptide)
peptide: TPRSPPLGLI
modifications: here or on the partner: phosphoserine at 4
binds: [3] | [4] | [5] | [6] | [7]

B4: SIK1 phosphopeptide RPRPVsPSSL (peptide)
peptide: RPRPVSPSSL
modifications: here or on the partner: phosphoserine at 6
binds: [8]

B5: LSP1 phosphopeptide KLIDRTEsL (peptide)
peptide: KLIDRTESL
modifications: here or on the partner: phosphoserine at 8
binds: [9] | [10] | [11] | [12] | [13]

B6: IRS2 phosphopeptide RVApSPTSGV (peptide)
peptide: RVASPTSGV
modifications: here or on the partner: phosphoserine at 4 (Ser1100 of IRS-2)
binds: [14] | [15] | [16] | [17]

B7: MAP3K11 phosphopeptide TPRsPPLGL (peptide)
peptide: TPRSPPLGL
modifications: here or on the partner: phosphoserine at 4
binds: [3] | [18] | [6] | [19] | [7]

B8: LSP1 phosphopeptide RQAsIELPSM (peptide)
peptide: RQASIELPSM
modifications: here or on the partner: phosphoserine at 4
binds: [20] | [21] | [9] | [11] | [22] | [12] | [23] | [16] | [13]

B9: Tensin-3 (TNS3) phosphopeptide VMIGsPKKV (peptide)
peptide: VMIGSPKKV
modifications: here or on the partner: phosphoserine at 5
binds: [24] | [16]

B10: SRp46 splicing factor phosphopeptide SMpTRSPPRV (peptide)
peptide: SMTRSPPRV
modifications: here or on the partner: phosphothreonine at 3
binds: [17]

B11: GPSM3 phosphopeptide GPRSASLLsL (peptide)
peptide: GPRSASLLSL
modifications: here or on the partner: phosphoserine at 9
binds: [25]

B12: SRSF8 phosphopeptide SMTRsPPRV (peptide)
peptide: SMTRSPPRV
modifications: here or on the partner: phosphoserine at 5
binds: [13]

B13: BCL11A phosphopeptide KPPsPSPIEM (peptide)
peptide: KPPSPSPIEM
modifications: phosphoserine at 4
binds: [26] | [27]

B14: ARID1B phosphopeptide RPSsLPDL (peptide)
peptide: RPSSLPDL
modifications: here or on the partner: phosphoserine at 4
binds: [28] | [4] | [29] | [30] | [1] | [31] | [32]

No constants are given. Whether binding was seen depends on the method and setting. A result given as binding can be weak or reduced; the word gives no strength.
